This note sets out measurements from patent US11155523B2, “Biphenyl compound as CCR2/CCR5 receptor antagonist” (Medshine Discovery Inc., priority 2016, dated 2021).

Chains of the proteins cited; added tags and fusions are not shown.
UniProt P51681, whole entry: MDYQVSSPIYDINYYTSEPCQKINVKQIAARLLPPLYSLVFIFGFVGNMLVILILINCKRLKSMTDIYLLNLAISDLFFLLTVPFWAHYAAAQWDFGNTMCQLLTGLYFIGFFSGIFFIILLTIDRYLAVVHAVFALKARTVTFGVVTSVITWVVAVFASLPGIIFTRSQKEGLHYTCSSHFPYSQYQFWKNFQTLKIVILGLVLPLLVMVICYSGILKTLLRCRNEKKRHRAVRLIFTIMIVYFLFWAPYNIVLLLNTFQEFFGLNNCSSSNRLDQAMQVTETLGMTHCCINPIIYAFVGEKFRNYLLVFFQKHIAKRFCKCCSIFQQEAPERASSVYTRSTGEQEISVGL
UniProt P41597, whole entry: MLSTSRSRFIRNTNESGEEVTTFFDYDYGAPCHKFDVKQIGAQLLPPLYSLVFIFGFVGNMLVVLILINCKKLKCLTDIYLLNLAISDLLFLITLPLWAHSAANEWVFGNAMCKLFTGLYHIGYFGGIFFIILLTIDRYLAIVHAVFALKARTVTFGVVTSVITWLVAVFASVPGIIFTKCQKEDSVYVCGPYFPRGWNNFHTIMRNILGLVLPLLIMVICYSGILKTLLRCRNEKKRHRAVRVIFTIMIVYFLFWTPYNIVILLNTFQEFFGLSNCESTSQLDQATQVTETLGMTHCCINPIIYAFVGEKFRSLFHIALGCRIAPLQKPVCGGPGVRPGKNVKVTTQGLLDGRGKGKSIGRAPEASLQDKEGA

One test concerns the target CCR5 (Homo sapiens, UniProt P51681). Put plainly: CCR5 in vitro test: intracellular calcium signal detected by FLIPR. Conditions: read-out: IC50 detected by FLIPR, CCR5; HEK293 cells expressing CCR5, agonist RANTES at EC80, calcium signal. The procedure:
(§1) Experimental Example 1: CCR2/CCR5 In Vitro Test
(§2) The intracellular calcium signal was detected by FLIPR, and the IC50 value of the compound was used as an index to evaluate the inhibitory effect of the compound on CCR2 and CCR5 receptors.
(§3) 1. Cell line: The cells were inoculated and incubated in a 5% CO2 incubator at 37° C. overnight.
(§4) CCR2/CCR5 density: 1 M (20 k/well)
(§5) 2. Reagents: Fluo-4 Direct, (Invitrogen, Cat #F10471)
(§6) The compound was dissolved in DMSO to prepare a 10 mM solution, and the compound solution was placed in a nitrogen box.
(§7) Agonist reference compounds:
(§8) Preparation of probenecid in FLIPR assay buffer: 1 mL of FLIPR assay buffer was added to […] of probenecid to prepare a 250 mM solution, which is prepared fresh daily. […]
(§9) (f) For DRC plate: • 1) Run the program on FLIPRTETRA. • 2) Read the fluorescent signal. • 3) Transfer 10 μL of compound from the DRC plate to the cell plate. • 4) Read the fluorescent signal. • 5) Calculate the “maximum−minimum” from Read 90 to the maximum allowed. […]
(§10) (g) For the composite plate (1-add): • 1) Run the program on FLIPRTETRA. • 2) Transfer 10 μl, of 5×EC80 concentration of the agonist reference compound from the composite plate to the cell plate. • 3) Read the fluorescent signal. • 4) Calculate the “maximum−minimum” from Read 90 to the maximum allowed. […]
(In general: Calcium assays in cells follow changes in intracellular calcium, usually with a dye or a luminescent sensor.)

In the next test the target is CCR2 (Homo sapiens, UniProt P41597). The test is described as follows: CCR2 in vitro test: intracellular calcium signal detected by FLIPR. Conditions: read-out: IC50 detected by FLIPR, CCR2; HEK293 cells expressing CCR2, agonist MCP-1 at EC80, calcium signal. The procedure:
as §1, §2, §3, §4, §5, §6, §7, §8, §9, §10

The match of structure and compound is tentative.

`CCCCOCCOc1ccc(-c2ccc(OC)c(/C=C/C(=O)Nc3ccc([S@@+]([O-])Cc4cnccc4CCC)cc3)c2)cc1`: the IC50 (in general, the concentration at which inhibition is half-maximal) at CCR5 was 0.0021 µM; on CCR2 it was 0.066 µM.
